Values of other authors, collected in patent US20060034941A1, “Organ preconditioning, arrest, protection, preservation and recovery” (priority 2002, published 2006).
Some of these results come from one statement about several compounds together. At least one structure is not confirmed: it was looked up by name or label, or the drawing left a doubt.

Test system: membrane potential of isolated rat heart
Conditions: direct potassium electrode measurements, hyperkalemic 16 mM K+ solutions; cited from earlier work

Compound: [Cl-].[K+] [16 mM KCl, potassium chloride]
- membrane potential, published values: −49.5 to −50 mV
